PubChem BioAssay AID1259424 | University of Nebraska Medical Center, 2018
The whole screen tested about 14,000 reagents; this is a part drawn at random. 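Higher correlation or smaller distance means closer resemblance to KSR1 loss; control wells, including KSR1 knockdowns, recur on many plates.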 Some reagents were tested in more than one well and are listed for each. Not all columns of the deposit are shown. Reagent sequences are not shown. The record does not give: the time to read-out.

- Test: 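Seek colon cancer survival genes behaving like KSR1, using a six-gene signature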 (primary screen)
- System: human HCT116 colon cancer cells
- Reagents: siRNA pool against human genes, 50 nM
- Measured: 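Log2 levels of six mRNAs (branched-DNA multiplex), adjusted by two reference genes and the non-targeting median, then scored against the average KSR1 knockdown pattern as Pearson r and euclidean distance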
- Direction: mean correlation with KSR1 profile: higher = expression change more like KSR1 knockdown

What is on record for SPCS1 (GeneID 28972)?
mean correlation with KSR1 profile: -0.314

With NMB (GeneID 4828), what was measured?
mean correlation with KSR1 profile: 0.137

With PRSS33 (GeneID 260429), how do the results read?
mean correlation with KSR1 profile: 0.544

Which result is listed for SLC25A28 (GeneID 81894)?
mean correlation with KSR1 profile: 0.317

With GTF2IRD1 (GeneID 9569), what was measured?
mean correlation with KSR1 profile: 0.015

For MRPL49 (GeneID 740), how do the results read?
mean correlation with KSR1 profile: -0.356

With AFG3L2 (GeneID 10939), how do the results read?
mean correlation with KSR1 profile: -0.218

For VAV1 (GeneID 7409), what does the deposit list?
mean correlation with KSR1 profile: 0.463

For PTPRE (GeneID 5791), what was measured?
mean correlation with KSR1 profile: 0.596

Which result is listed for SMARCAL1 (GeneID 50485)?
mean correlation with KSR1 profile: 0.143

With KDM5D (GeneID 8284), what was measured?
mean correlation with KSR1 profile: -0.554

What is on record for TONSL (GeneID 4796)?
mean correlation with KSR1 profile: 0.225

Individual results from the list:
Entry of GTF2IRD1 (GeneID 9569) under “mean correlation with KSR1 profile”: 0.015
For “mean correlation with KSR1 profile”, TONSL (GeneID 4796) is entered as 0.225
Under “mean correlation with KSR1 profile”, PRSS33 (GeneID 260429) has 0.544

More reagents follow:
For PARP12 (GeneID 64761), what was measured?
mean correlation with KSR1 profile: 0.0107

What did the screen give for RRN3P1 (GeneID 730092)?
mean correlation with KSR1 profile: -0.489

What did the screen give for CCL2 (GeneID 6347)?
mean correlation with KSR1 profile: 0.409

With CCL2 (GeneID 6347), what does the deposit list?
mean correlation with KSR1 profile: 0.0221

For SDCCAG8 (GeneID 10806), what was measured?
mean correlation with KSR1 profile: -0.018

For PIGQ (GeneID 9091), how do the results read?
mean correlation with KSR1 profile: -0.138

How did the screen score DSC1 (GeneID 1823)?
mean correlation with KSR1 profile: 0.576
